Source: article PMC4703873
Results are given in words; binding and its absence hold for the method and conditions named. In cells and extracts the contact can be indirect. Some entries that bind do so weakly or less than the wild type.

The chains behind the UniProt entries cited, without tags or fusion partners. Residues count along the entry.
GST-GluN2A(1,049-1,464) (Q00959, residues 1049-1464): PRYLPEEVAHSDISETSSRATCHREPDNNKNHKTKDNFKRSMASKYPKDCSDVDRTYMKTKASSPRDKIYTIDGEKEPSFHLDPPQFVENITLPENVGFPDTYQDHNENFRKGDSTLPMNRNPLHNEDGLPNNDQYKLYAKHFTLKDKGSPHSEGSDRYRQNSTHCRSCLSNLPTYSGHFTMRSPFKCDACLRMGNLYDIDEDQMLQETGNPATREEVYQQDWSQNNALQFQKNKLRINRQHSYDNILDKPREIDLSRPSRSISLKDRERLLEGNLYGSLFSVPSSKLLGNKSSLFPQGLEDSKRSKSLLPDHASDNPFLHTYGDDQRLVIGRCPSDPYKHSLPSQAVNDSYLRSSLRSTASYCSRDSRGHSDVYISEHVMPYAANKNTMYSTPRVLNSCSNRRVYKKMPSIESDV
GST-GluN2A(1,244-1,389) (Q00959, residues 1244-1389): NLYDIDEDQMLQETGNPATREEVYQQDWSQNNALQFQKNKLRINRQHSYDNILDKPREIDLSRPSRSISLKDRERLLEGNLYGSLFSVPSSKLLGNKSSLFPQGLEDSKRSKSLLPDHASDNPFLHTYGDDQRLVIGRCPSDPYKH
GST-GluN2A(1,349-1,461) (Q00959, residues 1349-1461): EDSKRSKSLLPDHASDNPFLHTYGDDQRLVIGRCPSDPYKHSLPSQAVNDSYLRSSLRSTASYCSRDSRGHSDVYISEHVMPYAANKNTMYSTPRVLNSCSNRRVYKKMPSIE
UniProt P47709: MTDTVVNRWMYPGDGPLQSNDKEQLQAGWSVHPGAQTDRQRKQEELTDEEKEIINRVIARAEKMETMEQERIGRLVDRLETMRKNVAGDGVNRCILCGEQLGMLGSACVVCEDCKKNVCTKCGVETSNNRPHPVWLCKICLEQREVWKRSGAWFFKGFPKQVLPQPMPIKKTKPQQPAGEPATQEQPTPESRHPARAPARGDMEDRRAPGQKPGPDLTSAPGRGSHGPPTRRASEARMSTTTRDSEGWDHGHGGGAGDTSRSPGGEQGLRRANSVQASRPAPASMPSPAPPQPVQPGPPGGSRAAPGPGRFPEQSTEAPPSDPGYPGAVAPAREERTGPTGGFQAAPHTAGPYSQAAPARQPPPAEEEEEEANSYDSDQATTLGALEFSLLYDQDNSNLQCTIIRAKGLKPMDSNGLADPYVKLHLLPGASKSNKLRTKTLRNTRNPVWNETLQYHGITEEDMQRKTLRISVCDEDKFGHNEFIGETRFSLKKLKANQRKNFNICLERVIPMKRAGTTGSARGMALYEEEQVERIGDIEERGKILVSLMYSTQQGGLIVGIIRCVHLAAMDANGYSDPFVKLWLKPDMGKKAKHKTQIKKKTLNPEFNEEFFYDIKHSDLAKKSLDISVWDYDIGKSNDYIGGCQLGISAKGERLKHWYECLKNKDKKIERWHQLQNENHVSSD

Key:
[1] = molecular target: NMDA receptor subunit GluN2A (endogenous, rat hippocampus) (rat (endogenous in rat hippocampus)) (UniProt Q00959); assay: co-IP; 50 ug rat hippocampal P2 crude membrane fraction; RIA buffer (200 mM NaCl, 10 mM EDTA, 10 mM Na2HPO4, 0.5% NP-40, 0.1% SDS); polyclonal anti-GluN2A or monoclonal anti-PSD-95 overnight at 4 C, protein A/G-agarose; western blot
GST-GluN2A(1,049-1,464) = GST-GluN2A(1,049-1,464) (UniProt Q00959); assay: pull-down; GST fusion proteins on glutathione agarose beads incubated 2 h with rat brain homogenate (250 ug, pre-cleared on GST alone) in TBS (10 mM Tris, 150 mM NaCl), room temperature; washed with TBS and 0.1% Triton X-100; western blot for Rph3A; for GST-GluN2A(1,049-1,464) also with 175 ug hippocampal homogenate with or without 20 mM Ca2+ and 1 mM IP3; only the target purified
GST-GluN2A(1,349-1,461) = GST-GluN2A(1,349-1,461) (UniProt Q00959); assay: as above
GST-GluN2A(1,244-1,389) = GST-GluN2A(1,244-1,389) (UniProt Q00959); assay: as above

Measured: binding

Rabphilin 3A (endogenous, rat brain) (from UniProt P47709 1-684)
binds: all assays above
